From PubChem BioAssay AID1259354 (Paczesny and Yang Labs, IUPUI and University of Michigan, 2018)
Among all 78,000 compounds or so, about 1,800 (2.3%) were called active. Inconclusive means that the source gave no clear call. Such entries were picked first, then a sample of the others. Rule as the data show it: active = inhibition above about 30%; inconclusive = mostly about 10% to 28%; inactive = weaker than that.

By UniProt entry, the sequences of proteins in these tests, tags left out. Where a name states a change or a piece, a line headed by the entry shows the natural chain unless it says otherwise.
UniProt Q01638: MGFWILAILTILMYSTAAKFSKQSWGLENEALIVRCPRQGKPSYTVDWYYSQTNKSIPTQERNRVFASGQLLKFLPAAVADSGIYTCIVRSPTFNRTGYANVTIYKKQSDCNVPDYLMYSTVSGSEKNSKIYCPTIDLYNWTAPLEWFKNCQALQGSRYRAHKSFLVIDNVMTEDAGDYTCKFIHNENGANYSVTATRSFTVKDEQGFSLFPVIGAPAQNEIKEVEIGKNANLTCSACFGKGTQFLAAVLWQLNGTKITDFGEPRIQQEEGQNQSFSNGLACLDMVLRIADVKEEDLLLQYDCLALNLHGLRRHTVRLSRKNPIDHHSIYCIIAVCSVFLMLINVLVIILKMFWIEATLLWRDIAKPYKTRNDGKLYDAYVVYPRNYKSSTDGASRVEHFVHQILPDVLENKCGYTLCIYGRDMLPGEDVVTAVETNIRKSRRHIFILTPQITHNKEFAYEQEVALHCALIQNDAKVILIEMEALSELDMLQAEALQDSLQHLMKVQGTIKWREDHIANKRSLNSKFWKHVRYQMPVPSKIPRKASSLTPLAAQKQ

target: Interleukin-1 receptor-like 1 (Homo sapiens) (UniProt Q01638); test: blocks human ST2 binding to IL-33, primary screen, biochemical, AlphaLISA (AID 1259354); conditions: AlphaLISA ST2-Fc/biotin-IL-33 interaction, 1 h; at 17 µM, active compounds read high

Structure (SMILES)	inhibition
CCCNC(=O)CCS(=O)(=O)c1cc(Br)cc2c1N(C(=O)CC)CC2	inconclusive: 17%
Clc1cccc(C=Nc2ccc(I)cc2)c1	inconclusive: 15%
O=[N+]([O-])c1cccc(-c2ncnn2-c2cccc(C(F)(F)F)c2)c1	inconclusive: 11%
Cc1cn(CC(=O)N2CCOC(CCCc3ccccc3)C2)c(=O)[nH]c1=O (stereo unspecified)	inactive
O=C(Nc1ccc(Cl)cc1)c1cc2ccccc2oc1=O	inactive
CCNc1ncc(C(=O)NCC2(O)CCCNCC2)cn1 (stereo unspecified)	inactive
Cc1ccc(C(=O)c2ccc(Cl)cc2)c(N2CCCCC2)n1	inactive
COCCn1c(=O)c2c(nc3n2CCN3c2cc(C)cc(C)c2)n(C)c1=O	inactive
CC(C)CC(O)C1CCN(Cc2cn[nH]c2-c2ccc(F)cc2)CC1 (stereo unspecified)	inconclusive: 10%
O=c1/c(=C/c2cccs2)sc2nnc(-c3ccccc3Cl)n12	inactive
CC1CN(C)C(C)c2c1oc1ccc([N+](=O)[O-])cc21 (stereo unspecified)	active: 43%
Cc1cccc(NC(=O)C2CCN(S(=O)(=O)c3cccc4cccnc34)CC2)n1	inconclusive: 14%
O=C1C2CCCN2C(c2ccc(Cl)c(Cl)c2)N1c1nccs1 (stereo unspecified)	inactive
O=S(=O)(c1cc(Cl)ccc1Cl)N1CCN(C23CC4CC(CC(C4)C2)C3)CC1	inconclusive: 10%
NCCC12C[C@H]3C[C@@H](C1)CC(C(=O)O)(C3)C2	inconclusive: 10%
Cc1cccc(CN2CCN(C(=O)c3cn4ccsc4n3)C(C)C2=O)c1 (stereo unspecified)	inactive
CCOc1cccc2sc(NC(=O)C3Cc4ccccc4O3)nc12 (stereo unspecified)	inactive
CCS(=O)(=O)Nc1cccc(NS(=O)(=O)CC)c1	inconclusive: 10%
CCOCC(=O)NCCNC(=O)c1cc(-c2ccc(Br)s2)nc2ccccc12	inconclusive: 15%
CCC(=O)Nc1cccc(OCC(=O)N(C)C(C)c2nccs2)c1 (stereo unspecified)	inconclusive: 10%
CCOc1ccc(-n2c(=O)c3sccc3n(CC(=O)NCc3ccco3)c2=O)cc1	inactive
O=C(CC1Sc2ccccc2NC1=O)Nc1ccccc1SC(F)(F)F (stereo unspecified)	inactive
c1cc2c(cc1CN1CCN(C3CCCC3)CC1)OCO2	inconclusive: 10%
O=C1CCCC2=C1C(c1ccc3c(c1)OCO3)Nc1ccc(C(=O)c3ccccc3)cc1N2 (stereo unspecified)	inconclusive: 17%

Structure (SMILES)	inhibition
COc1ccc(-c2nc(SCC(=O)Nc3ccc(OC(F)(F)F)cc3)[nH]c(=O)c2C#N)cc1	inconclusive: 11%
Cc1ccc(CNC2(Cc3cc(-c4ccc(F)cc4)on3)COC2)o1	inconclusive: 24%
CCOc1ccc(C2CC(=O)N3CN(c4ccccc4F)CSC3=C2C#N)cc1OC (stereo unspecified)	inconclusive: 12%
CN(CCNS(=O)(=O)c1cccc2cccnc12)Cc1ccccc1	inactive
Cc1c(Cl)cccc1NC(=O)CC(=O)N1CCC(N(C)C)C1 (stereo unspecified)	inconclusive: 18%
COC(=O)c1sc2ccccc2c1NC(=O)c1ccco1	inactive
CCCCOc1cccc(N=Cc2c(C)[nH]n(-c3ccccc3)c2=O)c1	active: 36%
Cc1[nH]c2c(C(=O)N3CC(=O)N(Cc4cnn(C)c4)CC(OCc4cccnc4)C3)cccc2c1C (stereo unspecified)	inconclusive: 21%
O[C@H]1COC[C@@H]1N1CCCN(c2nccc(C3CCCC3)n2)CC1	inconclusive: 14%
CC(C)Cc1ccc(S(=O)(=O)Nc2ccc(F)c(Cl)c2)cc1	inactive
Cc1cc(I)ccc1NC(=O)c1cccnc1	inconclusive: 10%
O=C(Nc1ccc(F)c(Cl)c1)c1noc2c1CCCC2	inconclusive: 22%
CCOC(=O)c1c(NC(=O)C(C)S(=O)(=O)c2cn(C)c3ccccc23)sc2c1CCC2 (stereo unspecified)	inactive
COc1ccc(Nc2cc(C)nc(Nc3ccc(NC(=O)c4c(F)cccc4Cl)cc3)n2)cc1	inconclusive: 17%
COc1ccc(-c2ccc(-c3nc(C(C)C)no3)cn2)c2cccnc12	inconclusive: 12%
CCC(CC)n1ncc(C)c1NC(=O)COc1cccnc1	inconclusive: 21%
O=[N+]([O-])c1ccc2[nH]c3ccccc3c2c1	inconclusive: 17%
COc1ccc(/C=C/c2cc(C(=O)O)c3ccccc3n2)cc1	inconclusive: 23%
O=C(CCS(=O)(=O)c1ccc(Br)s1)Nc1cccc(F)c1	inactive
CC(C)(C)c1ccc(S(N)(=O)=O)cc1	inactive
O=C1NN(c2ccc(Cl)c(Cl)c2)C(=O)/C1=C/c1ccc(-c2ccc3c(c2)C(=O)OC3)o1	inconclusive: 17%
O=C(Nc1ccc(F)cc1F)c1cc(C2CC2)on1	inconclusive: 12%
COc1ccc(Nc2nc3c(C)cccn3c(=O)c2C=NCc2ccccc2)cc1	active: 40%
C=C(C)CN(CC)Cc1cc(OC)c(OC)c(OC)c1	inactive

Structure (SMILES)	inhibition
COc1ccccc1/C=C1\N=C(c2cccc(C)c2)OC1=O	inconclusive: 16%
O=[N+]([O-])c1cc(Br)cc(C=Nc2ccc3oc(-c4ccncc4)nc3c2)c1O	inactive
Cc1ccc(C(C)CCN2CCC(n3nccc3NC(=O)C3CCCC3)CC2)o1 (stereo unspecified)	inactive
CC(=O)Oc1ccc(C2C(C#N)=C(N)Oc3n[nH]c(C)c32)cc1 (stereo unspecified)	inactive
CSc1ccc(C(=O)N2CCc3c(cnc(C)c3CNC(=O)/C=C/c3ccccc3)C2)cc1	inactive
Cn1c(=O)c2c(nc3n(Cc4ccccn4)c(C45CC6CC(CC(C6)C4)C5)cn23)n(C)c1=O	inactive
N=C1S/C(=C\c2ccccc2F)C(=O)N1c1ccccc1F	inconclusive: 14%
Cc1c(NC(=O)c2ncn[nH]2)c(=O)n(-c2ccccc2)n1C	inconclusive: 10%
N#Cc1c2c3c(cccc3[nH]c1=O)C(=O)c1ccccc1-2	inconclusive: 11%
CC1(C)[C@H]2CC=C(CCNC3CCN(c4ccc(C(=O)N5CCOCC5)cc4)CC3)[C@@H]1C2	inactive
CC(C)CN(CC(C)C)S(=O)(=O)c1ccc(C(=O)Nc2nc3c(s2)CCCC3)cc1	inactive
CCCOc1ccc(C(=O)N2CCN(c3ccc(Cl)cc3[N+](=O)[O-])CC2)cc1	inactive
O=C(O)C1CCCCC1C(=O)Nc1ccc(S(=O)(=O)Nc2nccs2)cc1 (stereo unspecified)	inactive
Cc1cccc(NC(=O)C2(S(=O)(=O)c3ccc(Cl)cc3)CC2)c1	inconclusive: 11%
CCCOc1ccc(C(Nc2ccccn2)c2ccc3cccnc3c2O)cc1 (stereo unspecified)	inconclusive: 17%
CC(O)(CC(=O)NCC(=O)O)CC(=O)OC1C(O)CC2(C)C3=C(CCC2C1(C)C)C1(C)CCC(C(CO)CCC(O)C(C)(C)O)C1(C)C(O)C3 (stereo unspecified)	inactive
COc1cc(C2C(C#N)=C(N)OC(C)=C2C(C)=O)ccc1O (stereo unspecified)	inconclusive: 20%
O=C(Nc1ccc(C(=O)c2ccccc2)cc1)c1cccc([N+](=O)[O-])c1	inconclusive: 12%
CCOc1cc(C=O)cc(Br)c1OCc1cccc([N+](=O)[O-])c1	inconclusive: 13%
CCCCNC(=O)CSc1nc2ccc(N3C(=O)c4ccccc4C3=O)cc2s1	inconclusive: 18%
COc1cc(/C=C2\SC(=O)N(c3ccc(O)cc3)C2=O)ccc1O	inconclusive: 25%
OC1(/C=C/C2(O)CCCCC2)CCCCC1	inactive
CCc1nc(C)c(C(=O)Nc2ccc(OC)c(NC(=O)c3ccccc3)c2)o1	inconclusive: 10%
O=C(Cn1c2ccccc2c(=O)c2ccccc21)Nc1ccccc1C(F)(F)F	active: 39%

Laid out differently: entries from further up

| Structure (SMILES) | inhibition |
| --- | --- |
| C=C(C)CN(CC)Cc1cc(OC)c(OC)c(OC)c1 | inactive |
| COc1ccccc1/C=C1\N=C(c2cccc(C)c2)OC1=O | inconclusive: 16% |
| O=[N+]([O-])c1cc(Br)cc(C=Nc2ccc3oc(-c4ccncc4)nc3c2)c1O | inactive |
| Cc1ccc(C(C)CCN2CCC(n3nccc3NC(=O)C3CCCC3)CC2)o1 (stereo unspecified) | inactive |
| CC(=O)Oc1ccc(C2C(C#N)=C(N)Oc3n[nH]c(C)c32)cc1 (stereo unspecified) | inactive |
| CSc1ccc(C(=O)N2CCc3c(cnc(C)c3CNC(=O)/C=C/c3ccccc3)C2)cc1 | inactive |
| Cn1c(=O)c2c(nc3n(Cc4ccccn4)c(C45CC6CC(CC(C6)C4)C5)cn23)n(C)c1=O | inactive |
| N=C1S/C(=C\c2ccccc2F)C(=O)N1c1ccccc1F | inconclusive: 14% |
| Cc1c(NC(=O)c2ncn[nH]2)c(=O)n(-c2ccccc2)n1C | inconclusive: 10% |
| N#Cc1c2c3c(cccc3[nH]c1=O)C(=O)c1ccccc1-2 | inconclusive: 11% |
| CC1(C)[C@H]2CC=C(CCNC3CCN(c4ccc(C(=O)N5CCOCC5)cc4)CC3)[C@@H]1C2 | inactive |
| CC(C)CN(CC(C)C)S(=O)(=O)c1ccc(C(=O)Nc2nc3c(s2)CCCC3)cc1 | inactive |
| CCCOc1ccc(C(=O)N2CCN(c3ccc(Cl)cc3[N+](=O)[O-])CC2)cc1 | inactive |
| O=C(O)C1CCCCC1C(=O)Nc1ccc(S(=O)(=O)Nc2nccs2)cc1 (stereo unspecified) | inactive |
| Cc1cccc(NC(=O)C2(S(=O)(=O)c3ccc(Cl)cc3)CC2)c1 | inconclusive: 11% |
| CCCOc1ccc(C(Nc2ccccn2)c2ccc3cccnc3c2O)cc1 (stereo unspecified) | inconclusive: 17% |
| CC(O)(CC(=O)NCC(=O)O)CC(=O)OC1C(O)CC2(C)C3=C(CCC2C1(C)C)C1(C)CCC(C(CO)CCC(O)C(C)(C)O)C1(C)C(O)C3 (stereo unspecified) | inactive |
| COc1cc(C2C(C#N)=C(N)OC(C)=C2C(C)=O)ccc1O (stereo unspecified) | inconclusive: 20% |
| O=C(Nc1ccc(C(=O)c2ccccc2)cc1)c1cccc([N+](=O)[O-])c1 | inconclusive: 12% |
| CCOc1cc(C=O)cc(Br)c1OCc1cccc([N+](=O)[O-])c1 | inconclusive: 13% |
| CCCCNC(=O)CSc1nc2ccc(N3C(=O)c4ccccc4C3=O)cc2s1 | inconclusive: 18% |
| COc1cc(/C=C2\SC(=O)N(c3ccc(O)cc3)C2=O)ccc1O | inconclusive: 25% |
| OC1(/C=C/C2(O)CCCCC2)CCCCC1 | inactive |
| CCc1nc(C)c(C(=O)Nc2ccc(OC)c(NC(=O)c3ccccc3)c2)o1 | inconclusive: 10% |
| O=C(Cn1c2ccccc2c(=O)c2ccccc21)Nc1ccccc1C(F)(F)F | active: 39% |

(list continues)

Structure (SMILES)	inhibition
COc1ccc(C2=C(CN(C)C)C(c3ccccc3)c3ccccc3O2)cc1OC (stereo unspecified)	inconclusive: 22%
COc1ccc(C2=NN(C(=O)c3ccccc3)C(c3ccc(N(C)C)cc3)C2)cc1OC (stereo unspecified)	inconclusive: 23%
O=C(c1c(F)cccc1F)N1CCN=C1SCc1ccc(Cl)cc1	inactive
COCC(=O)N1CCC(Oc2ccc(C(=O)NCC3COc4ccccc4O3)cc2)CC1 (stereo unspecified)	inconclusive: 12%
CCC(=O)Nc1ccc(Br)cc1C(=O)O	inactive
Cc1cc(N2CC(C)CC(C)C2)nc2ccc(NC(=O)CCC(=O)NC(C)C)cc12 (stereo unspecified)	inconclusive: 13%
CCc1nc(C)ccc1OCC(=O)N1CCCC2(CCNCC2)CC1	inactive
CCS(=O)(=O)N1CCC2(CCCN(CCc3ccccc3)C2)C1 (stereo unspecified)	inconclusive: 29%
CCSc1nc2c(c(=O)[nH]1)C(c1ccccc1)C1=C(CCCC1=O)N2 (stereo unspecified)	inactive
O=C(O)C[C@@H]1CCN(C(=O)c2cccs2)C[C@@H]1CCN1CCN(c2cccc(C(F)(F)F)c2)CC1	inconclusive: 13%
CN(Cc1nc2ccccc2s1)C(=O)c1cccc(Cn2cccn2)c1	inactive
COc1ccc(NC(=O)c2oc3ccccc3c2NC(=O)C2CCCC2)c(OC)c1	inactive
CCS(=O)(=O)N1CCN(c2nc(N(C)C)nc3c2CCNC3)CC1	inactive
COC(=O)[C@@H]1CCCN1Cc1cnc2c(-c3ccccc3)cnn2c1	inactive
Cc1ccsc1-c1nc(CN(C)Cc2cnn(C)c2C)c(C)o1	inactive
Cn1cc(CN2CCCC(OCc3cccnc3)C2)c(-c2cccc(Cl)c2)n1 (stereo unspecified)	inconclusive: 10%
Cc1cc(Nc2ccc(N3CCOCC3)cc2)c2cc(Cl)ccc2n1	inconclusive: 21%
O=c1/c(=C/c2ccco2)sc2n1CN(c1cccc(F)c1)CN=2	inconclusive: 25%
CN(C)/C(=C/C(=O)c1ccccc1)c1ccccc1	inconclusive: 13%
O=C(CC1CCCCC1)Nc1cccnc1	inactive
CCOc1cc(/C=C2/SC(=Nc3ccccc3)NC2=O)cc(Br)c1O	inconclusive: 28%
Cc1cc(N2CCC(CCCc3ccccc3)(C(=O)O)CC2)nc(N)n1	inactive
O=C(Nc1ccnn1C1CCN(Cc2ccc3c(c2)CCO3)CC1)C1CC1	inactive
Cc1cc(C)nc(NS(=O)(=O)c2ccc(Nc3nc(-c4sc(C)nc4C)cs3)cc2)n1	inactive
